Test results from PMC9814157.
No constants are given. Whether binding was seen depends on the method and setting. Binding seen in cells or lysates may run through a third protein. Some entries that bind do so weakly or less than the wild type.

Protein sequences, listed by entry. Tags and fused reporters are not part of them.
UniProt Q60631: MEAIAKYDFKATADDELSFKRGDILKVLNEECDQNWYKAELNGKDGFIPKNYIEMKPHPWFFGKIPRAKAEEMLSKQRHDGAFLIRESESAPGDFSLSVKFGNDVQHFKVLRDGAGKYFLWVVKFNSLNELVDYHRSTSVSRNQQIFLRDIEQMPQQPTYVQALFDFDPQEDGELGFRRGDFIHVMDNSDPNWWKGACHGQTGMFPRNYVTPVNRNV

Key:
[1] = biological target: T1, integrin-linked kinase (ILK) (mouse (endogenous in splenic B cells)) (UniProt O55222); assay: co-IP; lysate of β1^KO (Itgb1^fl/fl Cd21^Cre) transitional B cells, 1 mg total protein; anti-ILK (4G9) or control IgG overnight at 4°C, Dynabeads Protein G; 20 mM Hepes pH 7.6, 2 mM MgCl2, 150 mM NaCl, 10% glycerol, 0.1% NP40; immunoblot for Grb2 and ILK
T1 sequence: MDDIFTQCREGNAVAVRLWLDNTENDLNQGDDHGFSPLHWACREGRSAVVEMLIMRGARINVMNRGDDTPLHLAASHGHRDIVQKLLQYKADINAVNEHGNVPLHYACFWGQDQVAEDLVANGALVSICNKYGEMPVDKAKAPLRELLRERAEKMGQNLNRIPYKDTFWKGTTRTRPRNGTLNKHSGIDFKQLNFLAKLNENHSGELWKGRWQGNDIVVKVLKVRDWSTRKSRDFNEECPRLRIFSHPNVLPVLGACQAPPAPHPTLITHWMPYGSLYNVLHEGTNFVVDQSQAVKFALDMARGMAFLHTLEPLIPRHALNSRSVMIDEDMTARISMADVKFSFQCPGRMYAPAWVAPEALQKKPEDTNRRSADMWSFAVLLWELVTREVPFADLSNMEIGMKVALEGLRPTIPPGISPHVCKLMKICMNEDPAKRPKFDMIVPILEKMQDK

[2] = biological target: T1, integrin-linked kinase (ILK) (mouse (endogenous in splenic B cells)); assay: condition: only in lysates of β1^WT and β1^KO Fo B cells; co-IP; lysates of β1^WT and β1^KO follicular (Fo) B cells, 1 mg total protein; anti-ILK (4G9) or control IgG overnight at 4°C, Dynabeads Protein G; 20 mM Hepes pH 7.6, 2 mM MgCl2, 150 mM NaCl, 10% glycerol, 0.1% NP40; immunoblot for Grb2 and ILK
[3] = biological target: T1, integrin-linked kinase (ILK) (mouse (endogenous in splenic B cells)); assay: condition: only in lysate of β1^WT transitional B cells; co-IP; lysate of β1^WT (Itgb1^+/+ Cd21^Cre) transitional B cells, 1 mg total protein; anti-ILK (4G9) or control IgG overnight at 4°C, Dynabeads Protein G; 20 mM Hepes pH 7.6, 2 mM MgCl2, 150 mM NaCl, 10% glycerol, 0.1% NP40; immunoblot for Grb2 and ILK

binding [1]: binds weakly
binding [2]: no binding
binding [3]: no binding
Substance: adaptor protein Grb2 (from UniProt Q60631 1-217)
